This is an account of results in paper PMC10458647.

Results are given in words; binding and its absence hold for the method and conditions named. A result given as binding can be weak or reduced; the word gives no strength.

The experiment deals with TaHY5-7A (ELONGATED HYPOCOTYL 5-7A) in pGBKT7 (Triticum aestivum). Briefly: two-hybrid; yeast Y2HGold; bait in pGBKT7, prey in pGADT7; growth on SD/-Leu/-Trp/-His/-Ade and SD/-Leu/-Trp/-His/-Ade/X-α-Gal medium.

Take “TaBBX-3B (B-BOX-3B) in pGADT7 (from UniProt A0A3B6FJT2)”: the binding entry was “binds”.
